Reference: PubChem BioAssay AID686938 (Drosophila RNAi Screening Center, 2013)
The screen tested about 23,000 reagents; shown is an unselected part of those with a known target gene and a result. Of all reagents, 75 (0.33%) were called active. 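Raw plate signals without normalisation; calls rest on plate z-scores that were not deposited; ratio present for only 364 wells.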 Entries without a mark were called inactive. Reagents against one gene are numbered here. Names joined by + are all predicted targets of the reagent. Reagent sequences are not shown. Not stated in the record: the dose of the treatment.

Assay: 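Fly genes required for calcium entry once internal stores are emptied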 (primary screen)
Cells: Drosophila S2R+ cells
Reagents: long dsRNA against Drosophila genes, about 0.25 µg dsRNA per well, roughly 10,000 cells
Timing: 5 days of knock-down before the calcium assay
Challenge: thapsigargin (SERCA pump blocker) to empty calcium stores; entry signal taken 4 min after adding it
Measured: 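Duplicate raw fluo-4 intensities per well from a plate reader, at rest and four minutes after thapsigargin emptied calcium stores; entry-to-rest ratio filled for only some wells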
Reading the numbers: calcium entry signal: higher = stronger calcium signal after store depletion; resting calcium signal: higher = higher resting calcium signal
Units: calcium entry signal in fluorescence units; resting calcium signal in fluorescence units
Rule for the call: 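Hit if the duplicate-averaged plate z-score for entry over resting signal is under −3; wells with weak total dye signal (Fmax z < −2) or more than 5 off-targets removed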
Meaning of the calls: active = strongly reduced calcium entry; inactive = no strong reduction

Oatp58Dc showed calcium entry signal, replicate 1 = 3.65e7; resting calcium signal, replicate 1 = 1.79e7.
For Rpp21, the entry reads calcium entry signal, replicate 1 = 3.57e7; calcium entry signal, replicate 2 = 3.48e7; resting calcium signal, replicate 1 = 2.11e7; resting calcium signal, replicate 2 = 1.73e7.
With knock-down of Cks85A, the record shows calcium entry signal, replicate 1 = 4.45e7; calcium entry signal, replicate 2 = 4.23e7; resting calcium signal, replicate 1 = 2.18e7; resting calcium signal, replicate 2 = 2.04e7.
CG14759 gave calcium entry signal, replicate 1 = 3.38e7; calcium entry signal, replicate 2 = 3.43e7; resting calcium signal, replicate 1 = 1.63e7; resting calcium signal, replicate 2 = 1.44e7.
Knock-down of Cyp305a1 came out at: calcium entry signal, replicate 1 = 3.13e7; calcium entry signal, replicate 2 = 3.90e7; resting calcium signal, replicate 1 = 1.44e7; resting calcium signal, replicate 2 = 2.39e7.
With knock-down of Krn, the screen gave calcium entry signal, replicate 1 = 3.54e7; calcium entry signal, replicate 2 = 6.44e7; resting calcium signal, replicate 1 = 2.07e7; resting calcium signal, replicate 2 = 2.72e7.
Knock-down of CG1138 resulted in: calcium entry signal, replicate 1 = 3.41e7; calcium entry signal, replicate 2 = 2.89e7; resting calcium signal, replicate 1 = 1.68e7; resting calcium signal, replicate 2 = 1.33e7.
With knock-down of CG43795 + SkpF the results were calcium entry signal, replicate 1 = 3.35e7; calcium entry signal, replicate 2 = 3.92e7; resting calcium signal, replicate 1 = 1.82e7; resting calcium signal, replicate 2 = 1.67e7.
Silencing of CG14445 resulted in: calcium entry signal, replicate 1 = 3.06e7; calcium entry signal, replicate 2 = 3.50e7; resting calcium signal, replicate 1 = 1.45e7; resting calcium signal, replicate 2 = 1.54e7.
Against CG4681 the deposit lists calcium entry signal, replicate 1 = 4.33e7; calcium entry signal, replicate 2 = 5.11e7; resting calcium signal, replicate 1 = 2.18e7; resting calcium signal, replicate 2 = 2.28e7.
With knock-down of CG42724 #1 the results were calcium entry signal, replicate 1 = 2.57e7; calcium entry signal, replicate 2 = 3.65e7; resting calcium signal, replicate 1 = 1.09e7; resting calcium signal, replicate 2 = 1.39e7.
Knock-down of CG42724 #2 resulted in: calcium entry signal, replicate 1 = 2.31e7; calcium entry signal, replicate 2 = 6.75e7; resting calcium signal, replicate 1 = 1.11e7; resting calcium signal, replicate 2 = 2.84e7.
Jasper scored calcium entry signal, replicate 1 = 3.26e7; calcium entry signal, replicate 2 = 4.55e7; resting calcium signal, replicate 1 = 1.59e7; resting calcium signal, replicate 2 = 1.93e7.
CG16717 gave calcium entry signal, replicate 1 = 2.81e7; calcium entry signal, replicate 2 = 4.02e7; resting calcium signal, replicate 1 = 1.56e7; resting calcium signal, replicate 2 = 1.63e7.
Rab9 showed calcium entry signal, replicate 1 = 4.56e7; calcium entry signal, replicate 2 = 4.37e7; resting calcium signal, replicate 1 = 2.16e7; resting calcium signal, replicate 2 = 1.81e7.
Depletion of CG43347 #1 came out at: calcium entry signal, replicate 1 = 3.44e7; calcium entry signal, replicate 2 = 4.99e7; resting calcium signal, replicate 1 = 1.85e7; resting calcium signal, replicate 2 = 2.56e7.
Silencing of CG43347 #2 resulted in: calcium entry signal, replicate 1 = 3.18e7; calcium entry signal, replicate 2 = 3.46e7; resting calcium signal, replicate 1 = 2.02e7; resting calcium signal, replicate 2 = 1.62e7.
Against CG43347 #3, the entry reads calcium entry signal, replicate 1 = 4.55e7; calcium entry signal, replicate 2 = 3.55e7; resting calcium signal, replicate 1 = 2.66e7; resting calcium signal, replicate 2 = 1.60e7.
CG43347 #4 gave calcium entry signal, replicate 1 = 2.56e7; calcium entry signal, replicate 2 = 2.70e7; resting calcium signal, replicate 1 = 1.38e7; resting calcium signal, replicate 2 = 1.24e7.
CG43347 #5 scored calcium entry signal, replicate 1 = 5.09e7; calcium entry signal, replicate 2 = 2.96e7; resting calcium signal, replicate 1 = 2.53e7; resting calcium signal, replicate 2 = 1.29e7.
With knock-down of CG43347 #6, the record shows calcium entry signal, replicate 1 = 2.67e7; calcium entry signal, replicate 2 = 2.82e7; resting calcium signal, replicate 1 = 1.29e7; resting calcium signal, replicate 2 = 1.18e7.

Entries listed so far whose gene name starts with R or r (2):
Rpp21 — calcium entry signal, replicate 1: 3.57e7; calcium entry signal, replicate 2: 3.48e7; resting calcium signal, replicate 1: 2.11e7; resting calcium signal, replicate 2: 1.73e7
Rab9 — calcium entry signal, replicate 1: 4.56e7; calcium entry signal, replicate 2: 4.37e7; resting calcium signal, replicate 1: 2.16e7; resting calcium signal, replicate 2: 1.81e7
